Assay [1] deals with A549 cells. In words: cells. As to conditions: Homo sapiens, A549, 48 h, read-out: IC50 (cytotoxicity).
The subject of assay [2] is H1299 cells. In words: cells. Particulars: Homo sapiens, NCI-H1299, 48 h, read-out: IC50 (cytotoxicity).

Molecules are shown by their SMILES.

As for `O=C(CCCCCCC(=O)Nc1ccccc1)NO` [SAHA, suberoylanilide hydroxamic acid, reference compound], the figures for the half-inhibitory concentration (IC50) in assay [1] and in assay [2] were 1.89 µM and 4.59 µM, respectively.
